# Measured data: PubChem BioAssay AID504808 (Drosophila RNAi Screening Center, 2011)
# Screen: 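Chromatin factors that keep E2F targets switched off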 (primary screen)
# System: Drosophila S2 cells
# Reagent: long dsRNA against Drosophila genes
# Measurement: 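Firefly luciferase driven by E2F sites, normalised to Renilla luciferase on the same minimal promoter, measured by plate reader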
# Direction: E2F firefly: higher = more E2F reporter activity; Renilla normaliser: higher = more normaliser reporter signal
# Rule for the call: 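Called active if the normalised E2F reporter went up by over 50%; the cutoff is arbitrary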
# The deposit covers about 21,000 reagents; below is a random part of those with a known target gene and a result. Over the whole deposit, 18 (0.084%) were called active. 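Raw counts without plate normalisation, one of two replicates; the ratio scores behind the calls were not deposited.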 A number with no mark means an inactive call. The numbers tell different reagents against one gene apart. A plus sign joins genes that one reagent is predicted to hit. Not given: the amount of reagent, the time to read-out.
gene,reagent no.,"E2F firefly, rep 1","Renilla normaliser, rep 1"
CG34302,1,80253,4038
CG3309,1,96104,6362
CG9948,1,68133,3675
RhoGAP102A,1,84640,2904
RhoGAP102A,2,1.32e5,5201
CG13068,1,1.54e5,7965
CG14014,1,1.44e5,5002
SP1029,1,1.36e5,6830
Gr39b,1,93939,2528
CG8319,1,1.67e5,6484
Trhn,1,87824,3830
Adgf-A2,1,1.23e5,3922
CG30458,1,1.40e5,4493
CG7556,1,1.36e5,5091
CG6055,1,1.53e5,5577
CG6985,1,63836,3248
CG8188,1,1.42e5,7451
sip1,1,1.34e5,5055
CG4942,1,80024,3996
CG45067,1,1.04e5,4634
SPARC,1,1.20e5,5535
COX7C,1,70570,3757
Octbeta1R,1,1.07e5,5194
Skeletor (retired record),1,1.19e5,5563
Skeletor (retired record),2,76158,259
CG3777,1,59608,3155
ppk20,1,1.23e5,6302
Cbl,1,89430,4255
Cbl,2,1.06e5,4045
Sfxn2,1,1.39e5,6862

Reprinted from the entries so far for reference:
gene,reagent no.,"E2F firefly, rep 1","Renilla normaliser, rep 1"
CG4942,1,80024,3996
CG45067,1,1.04e5,4634
SPARC,1,1.20e5,5535
COX7C,1,70570,3757
Octbeta1R,1,1.07e5,5194
Skeletor (retired record),1,1.19e5,5563
Skeletor (retired record),2,76158,259
CG3777,1,59608,3155

Additional entries follow.
gene,reagent no.,"E2F firefly, rep 1","Renilla normaliser, rep 1"
CG11658,1,1.17e5,6423
GNBP1,1,1.68e5,9002
CG6569,1,1.42e5,7121
Cdlc2,1,85719,3705
XRCC1,1,8422,736
CG7564,1,1.36e5,6790
CG12971,1,1.54e5,6040
CG42821 + CG42822,1,76891,2646
CG42821 + CG42822,2,78069,2340
CG14803,1,80319,4029
Semp1,1,1.23e5,4211
CG11893,1,1.18e5,6039
MFS16,1,1.09e5,4950
CG2291,1,1.65e5,5066
CG14245,1,1.09e5,5851
RpL39,1,94403,4917
CG15124,1,1.55e5,5208
Or92a,1,1.54e5,7107
CG14546,1,1.13e5,5931
Kaz1-ORFB + Kaz1-ORFA,1,1.00e5,4778
CG13670,1,96970,3896
ash2,1,66719,4193
CG11413 + CG4622,1,1.01e5,4097
Efhc1.2,1,79501,3866
robl22E,1,1.81e5,6287
CG14109,1,1.36e5,7073
Eip93F,1,78935,2575
Eip93F,2,1.17e5,5907
